PubChem BioAssay AID504774 | Drosophila RNAi Screening Center, 2011

- Test: 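Fly genes whose loss alters survival after alkylation damage to DNA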 (primary screen)
- Cells: Drosophila Kc167 cells
- Reagents: long dsRNA against Drosophila genes, about 0.25 µg dsRNA per well
- Timing: about 6 days: 3 days knock-down, then 3 days with or without MMS
- Treatment: methyl methanesulphonate 0.004% (w/v) for 3 days after knock-down
- Detection: 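ATP-dependent luminescence as a measure of live cells in MMS-exposed wells, quantile normalised within each plate, with replicate values also given as a mean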
- Scale: mean viability with MMS: higher = more surviving cells after MMS
The deposit covers about 23,000 reagents; shown is an unselected part of those with a known target gene and a result. 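Values are quantile-normalised luminescence on an arbitrary scale; higher means more cells surviving MMS.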 Further read-outs or replicates are left out here.

CG3008 (GeneID 33693) [DRSC00560]
- mean viability with MMS: 3.55e6

FipoQ (GeneID 43475) [DRSC15413]
- mean viability with MMS: 3.38e6

CG32856 (GeneID 318251) [DRSC13124]
- mean viability with MMS: 3.47e6

nrv1 (GeneID 33952) [DRSC03382]
- mean viability with MMS: 3.55e6

CG6891 (GeneID 32865) [DRSC20016]
- mean viability with MMS: 3.80e6

CG18581 (GeneID 39633) [DRSC10324]
- mean viability with MMS: 3.56e6

TfIIA-L (GeneID 43284) [DRSC16882]
- mean viability with MMS: 3.40e6

CG15431 (GeneID 33646) [DRSC00446]
- mean viability with MMS: 3.56e6

CG14107 (GeneID 39498) [DRSC10110]
- mean viability with MMS: 3.29e6

Cpr31A (GeneID 2768918) [DRSC02779]
- mean viability with MMS: 3.43e6

HP4 (GeneID 38887) [DRSC10958]
- mean viability with MMS: 3.47e6

CG11403 (GeneID 31072) [DRSC18532]
- mean viability with MMS: 3.19e6

Jhbp1 (GeneID 40613) [DRSC12167]
- mean viability with MMS: 3.32e6

CG4281 (GeneID 31171) [DRSC18521]
- mean viability with MMS: 3.56e6

Nepl7 (GeneID 34671) [DRSC02495]
- mean viability with MMS: 3.67e6

CG6083 (GeneID 39305) [DRSC10580]
- mean viability with MMS: 3.51e6

CG14646 (GeneID 40555) [DRSC12232]
- mean viability with MMS: 3.65e6

CG14646 (GeneID 40555) [DRSC21316]
- mean viability with MMS: 3.50e6

HPS1 (GeneID 36656) [DRSC06195]
- mean viability with MMS: 3.34e6

CG4691 (GeneID 34856) [DRSC01950]
- mean viability with MMS: 3.56e6

SNCF (GeneID 39496) [DRSC10115]
- mean viability with MMS: 3.53e6

coro (GeneID 35596) [DRSC05007]
- mean viability with MMS: 3.80e6

coro (GeneID 35596) [DRSC21417]
- mean viability with MMS: 3.48e6

CG9932 (GeneID 34701) [DRSC03275]
- mean viability with MMS: 3.48e6
